From PubChem BioAssay AID897 (National Center for Advancing Translational Sciences (NCATS), 2007)
Inconclusive results, whose numbers are uncertain, are shown with a selection of clear calls. Potencies of inconclusive entries are doubtful fits and often do not repeat. A note “side channel” means that the fit belongs to a control or component signal, not to the main read-out. Activity calls are given as the source filed them. Calls follow the shape of the dose curve; as a rule, active = well fitted inhibition curve with a large enough effect in the main read-out, with a control signal flat (not every such curve was filed as active); inconclusive = small, poorly fitted or top-dose-only effect, or a change in a side signal; inactive = no such curve, though single readings can be large or run the other way.

Sequences of proteins named here, by UniProt entry; tags and fusion partners are left off. Residues count along the entry.
UniProt P55210, 24-198 limits assumed: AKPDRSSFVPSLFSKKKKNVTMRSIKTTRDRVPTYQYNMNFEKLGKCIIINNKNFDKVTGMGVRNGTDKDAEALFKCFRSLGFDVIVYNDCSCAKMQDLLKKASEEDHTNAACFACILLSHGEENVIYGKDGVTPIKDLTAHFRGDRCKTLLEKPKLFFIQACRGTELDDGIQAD
UniProt P55210, 207-303 limits assumed: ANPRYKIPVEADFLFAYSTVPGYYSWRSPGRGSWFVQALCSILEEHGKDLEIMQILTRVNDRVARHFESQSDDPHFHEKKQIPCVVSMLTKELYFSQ

Molecular target: Caspase-7 (Homo sapiens) (UniProt P55210)
Test: Confirmation Concentration-Response Assay for Allosteric/Competitive Inhibitors of Caspase-7
Conditions: recombinant caspase-7, fluorogenic substrate cleavage
Excerpt: NIH Molecular Libraries Screening Centers Network [MLSCN]
NIH Chemical Genomics Center [NCGC]
PI Name: Dr. James Wells,
Dr. Enrique Perez-Paya, Dr.Janice Williams, Dr. Dennis Wolan, a person
The caspases (Cysteine Aspartyl Protease) comprise a related family of 14 dimeric proteases that are critical mediators of apoptosis (programmed cell death) and inflammation. The caspases represent an important class of drug targets for stroke, ischemia, cancer and inflammatory diseases. […] One goal of this project was to identify compounds that act as allosteric inhibitors via stabilizing the procaspase form of the enzyme. […]
The biochemical assay was configured using purified caspase 7 at a high enzyme concentration to promote formation of the homodimers and thus facilitate the identification of allosteric inhibitors. […] After initiation of the assay with substrate the plates were rapidly read using an automated robotic system (Kalypsys, Inc.) to maintain consistent timing. […]
Caspase 7 was prepared in buffer (50 mM HEPES pH 7.5, 50 mM KCl, 200 mM NaCl, 10 mM DTT, 0.1% CHAPS) at a concentration of 66.6 nM and 3 uL was dispensed to all wells using black solid Kalypsys 1536-well plates. […] The plates were then exposed using 405 nm excitation/520 nm emission filters for 4 sec and read at 20 sec intervals for 3 min. […]

Compound	Potency
Cn1ncnc2c(=O)n(C)c(=O)nc1-2	active: 3.98 µM
C[C@]12Cc3cn4c(nc3C=C1CC[C@H]1[C@@H]2CC[C@@]2(C)[C@H]1CC[C@@]2(O)C#N)nc1ccccc14	inconclusive: 20 µM [fluorescent, side channel, partial curve]
